Experimental data reported in publication PMC7616425.
Substitutions are numbered along the chain they refer to. No constants are given. Whether binding was seen depends on the method and setting. Some entries that bind do so weakly or less than the wild type. Each block holds one binder with its values, some of them ahead of it.

By UniProt entry, the sequences of proteins in these tests, tags left out.
UniProt P60953: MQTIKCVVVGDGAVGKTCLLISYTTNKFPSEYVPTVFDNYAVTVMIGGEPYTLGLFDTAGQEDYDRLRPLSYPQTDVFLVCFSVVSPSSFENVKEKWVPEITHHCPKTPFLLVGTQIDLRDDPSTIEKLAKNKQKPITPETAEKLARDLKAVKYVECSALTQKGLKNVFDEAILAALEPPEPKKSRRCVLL

Tests used:
[1] = molecular target: Cdc42, homogeneously geranylgeranylated in vitro (UniProt P60953); assay: solution NMR (15N R2 relaxation, chemical-shift perturbations); triple-labeled RhoGDI with excess unlabeled geranylgeranylated Cdc42; the complex separated from free Cdc42 by size exclusion chromatography, no detergent; 25 °C; both purified
[2] = molecular target: Cy3-labeled, prenylated Cdc42 (UniProt P60953); assay: FRET or BRET; dissociation assay: 80 nM dual-labeled complex (Alexa647 on RhoGDI1, Cy3 on Cdc42) mixed with excess (5 μM) unlabeled GDI; mono-exponential fits; KD calculated from the measured dissociation rate constant and the association rate constant measured for wt (assumed for the mutants); both purified

binding [1]: binds
B1: full-length RhoGDI1 (residues 1 to 204), bovine (protein, UniProt P19803 1-204)
chain: MAEQEPTAEQLAQIAAENEEDEHSVNYKPPAQKSIQEIQELDKDDESLRKYKEALLGRVAVSADPNVPNVVVTRLTLVCSTAPGPLELDLTGDLESFKKQSFVLKEGVEYRIKISFRVNREIVSGMKYIQHTYRKGVKIDKTDYMVGSYGPRAEEYEFLTPMEEAPKGMLARGSYNIKSRFTDDDRTDHLSWEWNLTIKKEWKD
modifications: triply labeled (2H, 13C, 15N) in the NMR samples

binding [2]: binds
B2: Alexa647-labeled RhoGDI1 L56V (protein, UniProt P19803 1-204)
chain: B1 chain with L56V
modifications: Alexa647 acceptor (site not stated)

binding [2]: binds
B3: Alexa647-labeled RhoGDI1 L56A (protein, UniProt P19803 1-204)
chain: B1 chain with L56A
modifications: Alexa647 acceptor (site not stated)
